Assay [1] deals with HepG2. The assay is described as follows: cells. Conditions: Homo sapiens, HepG2, 48 h, read-out: IC-50, RE-CES.
The subject of assay [2] is HepG2. The assay is described as follows: cells. The conditions noted are these: Homo sapiens, HepG2, 48 h, read-out: IC-50, MTT Assay.

SMILES strings stand for the structures. Read-outs that look alike come from different tables or passages of the source.

In the case of `CC/C(=C(\c1ccccc1)c1ccc(OCCN(C)C)cc1)c1ccccc1` [Tamoxifen], the values for the IC50 in the assay with HepG2 [1] and in the assay with HepG2 [2] were 15.2 µM and 16.2 µM, respectively.

For the origin of these results see patent US20210364494A1, “CELL-SUBSTRATE IMPEDANCE MONITORING OF CANCER CELLS OF DIFFERENT LINEAGE, ORIGIN, OR STAGE” (ACEA BIOSCIENCES, INC., priority 2017, published 2021).
